We go through two substances from patent US20190321496A1 (Baker IDI Heart and Diabetes Institute Holdings Limited, priority 2016, published 2019).

This series in a line: general procedure: Fmoc solid-phase peptide synthesis; Fmoc-Lys(Boc) Wang resin; HATU/DIPEA. The following applies: whole synthesis, scale 0.25 mmol.

The star is where a group is joined. Fmoc = O=C(OCC1c2ccccc2-c2ccccc21)*

Fmoc-GLGYGWSGK-OH had an isolated mass of 45.2 mg and an isolated yield of 15%.

Fmoc-TLTYTWSGK-OH displayed an isolated mass of 33.2 mg and an isolated yield of 9.9%.
